Experimental data: PubChem BioAssay AID652243 (Drosophila RNAi Screening Center, 2013)
In all, the deposit lists about 24,000 reagents; below is an unselected part of those with a known target gene and a result. Over the whole deposit, 246 (1%) got an active call. 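Plates not normalised; calls are printed but the firefly/Renilla ratio behind them is not deposited; fold cut for lowering reported inconsistently.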 Raw values are not corrected between plates. The record does not give: the amount of reagent.

Purpose: 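Fly genes required for human androgen receptor driven transcription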 (primary screen)
Cell system: Drosophila S2R+ cells
Reagents: long dsRNA against Drosophila genes
Timing: 72 h (48 h, then 24 h hormone)
Treatment: synthetic androgen R1881 at 10 nM for 24 h
Measured: 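Firefly light from an androgen-responsive reporter and Renilla control light per well, raw and unnormalised, for each of two replicates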
Scale: firefly reporter light: higher = more light from androgen-responsive reporter; Renilla control light: higher = more constitutive control signal (cell number, transfection)
Rule for the call: 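Across duplicate plates, a knock-down whose log firefly/Renilla ratio shifted a set fold down or up from the GFP/LacZ control mean was a hit; the downward cut appears as both 1.5 and 3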
Calls: active = hit: reporter lowered or raised; inactive = no hit

predicted target	amplicon	firefly reporter light, replicate 1	firefly reporter light, replicate 2	Renilla control light, replicate 1	Renilla control light, replicate 2	Outcome
CG3819 (GeneID 40069)	DRSC10378	1.55e5	1.64e5	2.01e6	2.32e6	inactive
CG3819 (GeneID 40069)	DRSC27675	2.84e5	1.68e5	7.62e5	5.80e5	inactive
CG17267 (GeneID 42454)	DRSC15207	2.19e5	2.54e5	3.37e6	3.04e6	inactive
Rrp6 (GeneID 41798)	DRSC16223	76004	76624	6.97e5	4.22e5	inactive
Dic4 (GeneID 40039)	DRSC10317	2.87e5	2.11e5	2.67e6	2.87e6	inactive
Lim1 (GeneID 31813)	DRSC17752	95012	55068	7.51e5	6.46e5	inactive
Den1 (GeneID 36339)	DRSC07195	3.50e5	2.32e5	1.86e6	1.32e6	inactive
pea (GeneID 36561)	DRSC07120	8.90e5	1.07e6	2.05e6	1.93e6	inactive
pea (GeneID 36561)	DRSC29708	2.88e5	3.74e5	6.66e5	8.56e5	inactive
CG14631 (GeneID 31049)	DRSC17792	3.70e5	4.30e5	4.98e6	4.45e6	inactive
CG14631 (GeneID 31049)	DRSC17941	2.75e5	3.21e5	3.82e6	3.35e6	inactive
ken (GeneID 37785)	DRSC23196	5.31e5	4.50e5	9.04e5	8.98e5	inactive
Ada (GeneID 41092)	DRSC14463	2.10e5	2.18e5	3.48e6	3.25e6	inactive
CG11382 (GeneID 31069)	DRSC18624	2.53e5	2.41e5	2.89e6	2.39e6	inactive
CG12091 (GeneID 38177)	DRSC08251	86052	89895	7.38e5	6.41e5	inactive
CG12091 (GeneID 38177)	DRSC24873	7.11e5	8.47e5	9.85e5	1.06e6	inactive
Mlc2 (GeneID 43587)	DRSC16741	97211	62780	8.94e5	6.04e5	inactive
Mlc2 (GeneID 43587)	DRSC28878	7.15e5	7.67e5	1.51e6	1.23e6	inactive
mia (GeneID 40667)	DRSC12137	75325	48990	4.21e5	3.36e5	inactive
CSN4 (GeneID 35759)	DRSC07350	1.32e5	1.05e5	8.63e5	1.14e6	inactive
CG14401 (GeneID 35358)	DRSC02385	2.27e5	1.53e5	2.13e6	2.26e6	inactive
CG14401 (GeneID 35358)	DRSC21710	1.07e6	8.37e5	1.21e6	1.09e6	inactive
CG14401 (GeneID 35358)	DRSC24098	9.36e5	8.50e5	8.07e5	8.37e5	inactive
CG17065 (GeneID 33026)	DRSC20544	2.18e5	1.09e5	8.23e5	3.31e5	inactive
CG17065 (GeneID 33026)	DRSC26822	3.52e5	3.95e5	3.69e5	3.24e5	inactive
nompC (GeneID 33768)	DRSC03581	1.01e5	77302	1.21e6	7.86e5	inactive
CG10445 (GeneID 40938)	DRSC14247	1.19e5	97159	2.70e6	2.25e6	inactive
Mob2 (GeneID 39293)	DRSC09117	66025	43730	2.62e5	2.73e5	active
Mob2 (GeneID 39293)	DRSC09119	1.65e5	1.87e5	4.21e5	3.82e5	inactive
Mob2 (GeneID 39293)	DRSC23274	1.26e6	1.28e6	1.74e6	1.94e6	inactive
CG5866 (GeneID 42097)	DRSC15900	3.78e5	4.02e5	1.59e6	1.62e6	inactive
CG2528 (GeneID 35435)	DRSC03724	2.32e5	1.69e5	1.79e6	1.37e6	inactive

5 successive entries already listed, quoted:
predicted target	amplicon	firefly reporter light, replicate 1	firefly reporter light, replicate 2	Renilla control light, replicate 1	Renilla control light, replicate 2	Outcome
Dic4 (GeneID 40039)	DRSC10317	2.87e5	2.11e5	2.67e6	2.87e6	inactive
Lim1 (GeneID 31813)	DRSC17752	95012	55068	7.51e5	6.46e5	inactive
Den1 (GeneID 36339)	DRSC07195	3.50e5	2.32e5	1.86e6	1.32e6	inactive
pea (GeneID 36561)	DRSC07120	8.90e5	1.07e6	2.05e6	1.93e6	inactive
pea (GeneID 36561)	DRSC29708	2.88e5	3.74e5	6.66e5	8.56e5	inactive

More records follow.
predicted target	amplicon	firefly reporter light, replicate 1	firefly reporter light, replicate 2	Renilla control light, replicate 1	Renilla control light, replicate 2	Outcome
CG11523 (GeneID 40458)	DRSC11669	63868	51170	4.99e5	4.03e5	inactive
CG11523 (GeneID 40458)	DRSC26429	3.24e5	2.98e5	3.80e5	6.55e5	inactive
abs (GeneID 40530)	DRSC12372	70786	54497	3.65e5	2.40e5	inactive
Arfip (GeneID 41353)	DRSC15179	42774	67543	4.38e5	5.11e5	inactive
Arfip (GeneID 41353)	DRSC27068	3.79e5	2.81e5	9.75e5	5.30e5	inactive
MnM (GeneID 38384)	DRSC08423	1.10e5	1.20e5	2.18e6	2.19e6	inactive
eIF4E6 (GeneID 43422)	DRSC14853	2.14e5	1.69e5	2.36e6	2.60e6	inactive
eIF4E6 (GeneID 43422)	DRSC25760	7.76e5	9.24e5	1.56e6	1.34e6	inactive
eIF4E6 (GeneID 43422)	DRSC39077	7.70e5	6.72e5	2.20e6	2.29e6	inactive
CG14367 (GeneID 41676)	DRSC14829	1.43e5	2.42e5	2.52e6	3.10e6	inactive
CG3108 (GeneID 31506)	DRSC18280	91430	1.08e5	1.14e6	7.18e5	inactive
Or98b (GeneID 43375)	DRSC16775	1.98e5	2.20e5	3.09e6	3.74e6	inactive
Or98b (GeneID 43375)	DRSC21751	5.35e5	4.73e5	2.19e6	2.14e6	inactive
SkpB (GeneID 36298)	DRSC07683	5.04e5	2.93e5	1.74e6	1.86e6	inactive
SkpB (GeneID 36298)	DRSC25160	1.95e5	1.97e5	5.82e5	3.94e5	inactive
Ir92a (GeneID 42415)	DRSC15111	2.41e5	2.43e5	2.87e6	3.41e6	inactive
Ir56c (GeneID 37251)	DRSC06544	56516	68818	8.34e5	9.94e5	inactive
Ir56c (GeneID 37251)	DRSC26227	4.69e5	4.75e5	6.99e5	6.73e5	inactive
Slob (GeneID 34038)	DRSC02296	2.47e5	2.00e5	1.81e6	1.22e6	inactive
Slob (GeneID 34038)	DRSC03436	3.79e5	6.39e5	1.62e6	2.23e6	inactive
Slob (GeneID 34038)	DRSC36750					inactive
Slob (GeneID 34038)	DRSC36751					inactive
GluRIA (GeneID 38742)	DRSC11176	2.68e5	2.40e5	3.32e6	2.56e6	inactive
icln (GeneID 36997)	DRSC07630	61755	78978	8.30e5	8.30e5	inactive
icln (GeneID 36997)	DRSC26232	2.57e5	3.10e5	7.53e5	7.71e5	inactive
Agpat2 (GeneID 34176)	DRSC03532	9.85e5	6.10e5	1.23e6	7.82e5	inactive
Agpat2 (GeneID 34176)	DRSC27901	7.08e5	4.96e5	2.43e6	1.33e6	inactive
